# According to the supplement of paper PMC12819154, “High-throughput peptide-centric local stability assay extends protein–ligand identification to membrane proteins, tissues and bacteria” (Nature Structural & Molecular Biology, 2025):
# Chains of the proteins cited; added tags and fusions are not shown. Lines headed by an entry give the natural chain unless they say otherwise; changes in a name come on top.
# UniProt P53798: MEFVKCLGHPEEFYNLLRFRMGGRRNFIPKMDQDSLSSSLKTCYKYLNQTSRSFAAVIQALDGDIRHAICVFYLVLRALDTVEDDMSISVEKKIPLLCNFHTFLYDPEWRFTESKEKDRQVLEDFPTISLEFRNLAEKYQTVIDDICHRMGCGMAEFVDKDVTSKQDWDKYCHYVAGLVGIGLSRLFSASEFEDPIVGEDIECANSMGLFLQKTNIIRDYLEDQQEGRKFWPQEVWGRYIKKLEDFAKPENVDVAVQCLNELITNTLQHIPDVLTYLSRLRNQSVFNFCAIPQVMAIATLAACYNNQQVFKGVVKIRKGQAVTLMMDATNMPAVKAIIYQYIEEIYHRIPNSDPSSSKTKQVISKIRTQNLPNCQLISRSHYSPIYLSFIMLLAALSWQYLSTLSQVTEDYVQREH
# UniProt P39039: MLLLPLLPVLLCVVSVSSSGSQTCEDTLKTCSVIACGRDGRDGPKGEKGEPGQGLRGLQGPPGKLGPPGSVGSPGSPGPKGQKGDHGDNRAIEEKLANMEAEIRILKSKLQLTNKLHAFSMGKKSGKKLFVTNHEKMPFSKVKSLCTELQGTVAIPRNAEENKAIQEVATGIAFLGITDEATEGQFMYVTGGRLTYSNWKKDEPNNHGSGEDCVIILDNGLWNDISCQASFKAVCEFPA
# UniProt P52623: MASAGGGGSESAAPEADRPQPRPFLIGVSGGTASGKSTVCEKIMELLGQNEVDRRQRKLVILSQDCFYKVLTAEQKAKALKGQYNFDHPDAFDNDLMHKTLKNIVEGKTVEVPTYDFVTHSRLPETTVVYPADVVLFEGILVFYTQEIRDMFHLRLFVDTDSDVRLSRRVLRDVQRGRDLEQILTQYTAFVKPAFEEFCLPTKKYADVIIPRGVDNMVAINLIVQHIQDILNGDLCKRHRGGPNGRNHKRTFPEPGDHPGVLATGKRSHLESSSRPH
# UniProt P45591, whole entry: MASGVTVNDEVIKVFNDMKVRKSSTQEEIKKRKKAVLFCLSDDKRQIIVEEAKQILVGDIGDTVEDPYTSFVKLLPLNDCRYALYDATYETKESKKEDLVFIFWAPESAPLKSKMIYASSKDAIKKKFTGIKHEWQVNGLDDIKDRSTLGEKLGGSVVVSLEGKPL
# UniProt P53657: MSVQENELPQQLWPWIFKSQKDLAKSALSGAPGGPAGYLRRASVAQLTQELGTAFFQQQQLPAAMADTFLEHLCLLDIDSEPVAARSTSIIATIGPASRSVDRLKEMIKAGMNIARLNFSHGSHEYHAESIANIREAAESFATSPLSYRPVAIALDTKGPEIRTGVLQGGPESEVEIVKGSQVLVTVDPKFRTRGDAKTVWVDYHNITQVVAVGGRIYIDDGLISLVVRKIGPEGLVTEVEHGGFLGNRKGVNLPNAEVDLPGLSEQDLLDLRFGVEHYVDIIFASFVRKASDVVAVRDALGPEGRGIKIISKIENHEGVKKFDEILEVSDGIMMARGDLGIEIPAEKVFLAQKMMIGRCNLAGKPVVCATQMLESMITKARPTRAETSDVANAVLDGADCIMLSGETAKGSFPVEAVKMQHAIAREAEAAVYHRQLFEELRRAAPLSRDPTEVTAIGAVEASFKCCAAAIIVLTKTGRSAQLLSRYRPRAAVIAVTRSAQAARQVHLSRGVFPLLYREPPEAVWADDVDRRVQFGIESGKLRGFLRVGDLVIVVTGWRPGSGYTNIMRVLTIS
# UniProt P46656: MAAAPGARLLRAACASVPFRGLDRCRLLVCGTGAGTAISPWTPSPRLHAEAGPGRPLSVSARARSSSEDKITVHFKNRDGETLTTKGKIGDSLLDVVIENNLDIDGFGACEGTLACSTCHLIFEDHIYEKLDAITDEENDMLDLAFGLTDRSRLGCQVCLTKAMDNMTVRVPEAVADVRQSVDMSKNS
# UniProt P52196: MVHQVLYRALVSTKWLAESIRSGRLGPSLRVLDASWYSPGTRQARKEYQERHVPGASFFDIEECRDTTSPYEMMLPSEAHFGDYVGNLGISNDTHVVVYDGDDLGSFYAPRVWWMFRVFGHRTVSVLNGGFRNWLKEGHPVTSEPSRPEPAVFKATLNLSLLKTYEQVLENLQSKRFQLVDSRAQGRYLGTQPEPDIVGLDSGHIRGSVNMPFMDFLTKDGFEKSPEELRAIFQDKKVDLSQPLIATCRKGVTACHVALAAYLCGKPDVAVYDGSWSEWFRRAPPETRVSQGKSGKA
# UniProt P51141: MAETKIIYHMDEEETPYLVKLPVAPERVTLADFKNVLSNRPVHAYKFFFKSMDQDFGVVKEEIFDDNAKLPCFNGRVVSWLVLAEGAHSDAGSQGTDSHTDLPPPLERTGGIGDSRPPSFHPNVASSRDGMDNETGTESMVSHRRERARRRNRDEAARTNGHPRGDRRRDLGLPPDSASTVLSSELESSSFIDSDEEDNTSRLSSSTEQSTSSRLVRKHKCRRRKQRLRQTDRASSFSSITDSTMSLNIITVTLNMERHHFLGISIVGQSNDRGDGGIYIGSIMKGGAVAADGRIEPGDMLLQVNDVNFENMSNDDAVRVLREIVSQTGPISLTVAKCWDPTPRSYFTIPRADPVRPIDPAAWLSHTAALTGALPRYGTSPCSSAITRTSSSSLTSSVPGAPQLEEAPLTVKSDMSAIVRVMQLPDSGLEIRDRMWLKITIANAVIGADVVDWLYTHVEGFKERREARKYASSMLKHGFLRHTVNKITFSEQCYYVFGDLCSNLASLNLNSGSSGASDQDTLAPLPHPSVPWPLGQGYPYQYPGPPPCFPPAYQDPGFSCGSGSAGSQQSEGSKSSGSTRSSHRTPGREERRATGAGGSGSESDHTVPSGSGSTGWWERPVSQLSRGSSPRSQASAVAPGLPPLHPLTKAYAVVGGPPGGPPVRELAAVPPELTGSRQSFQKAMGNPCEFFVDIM
# UniProt P35396: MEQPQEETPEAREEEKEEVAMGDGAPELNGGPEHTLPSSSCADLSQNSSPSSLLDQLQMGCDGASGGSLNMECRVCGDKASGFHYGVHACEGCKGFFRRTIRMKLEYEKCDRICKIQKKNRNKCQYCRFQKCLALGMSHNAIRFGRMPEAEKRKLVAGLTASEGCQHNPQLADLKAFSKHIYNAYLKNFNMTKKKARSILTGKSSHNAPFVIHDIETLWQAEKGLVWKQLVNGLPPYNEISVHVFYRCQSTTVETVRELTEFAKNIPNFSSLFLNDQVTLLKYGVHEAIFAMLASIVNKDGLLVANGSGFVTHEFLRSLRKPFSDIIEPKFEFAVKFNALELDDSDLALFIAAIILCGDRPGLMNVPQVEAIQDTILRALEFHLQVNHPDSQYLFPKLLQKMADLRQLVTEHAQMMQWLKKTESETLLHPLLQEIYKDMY
# UniProt P51949: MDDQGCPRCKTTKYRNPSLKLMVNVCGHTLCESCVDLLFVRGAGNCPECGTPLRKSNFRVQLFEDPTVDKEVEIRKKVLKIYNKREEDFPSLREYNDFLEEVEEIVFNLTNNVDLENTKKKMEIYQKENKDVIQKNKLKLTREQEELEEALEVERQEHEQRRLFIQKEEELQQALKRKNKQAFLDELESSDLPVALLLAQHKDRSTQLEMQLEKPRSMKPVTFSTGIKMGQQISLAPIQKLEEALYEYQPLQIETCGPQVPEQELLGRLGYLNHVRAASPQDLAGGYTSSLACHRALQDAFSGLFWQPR
# UniProt P43277, whole entry: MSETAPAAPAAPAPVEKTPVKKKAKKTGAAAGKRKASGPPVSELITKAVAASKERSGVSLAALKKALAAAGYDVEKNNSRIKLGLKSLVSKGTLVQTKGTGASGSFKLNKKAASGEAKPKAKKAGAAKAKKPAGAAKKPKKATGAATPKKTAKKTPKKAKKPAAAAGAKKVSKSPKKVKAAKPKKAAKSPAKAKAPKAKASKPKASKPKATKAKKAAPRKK
# UniProt P40124, whole entry: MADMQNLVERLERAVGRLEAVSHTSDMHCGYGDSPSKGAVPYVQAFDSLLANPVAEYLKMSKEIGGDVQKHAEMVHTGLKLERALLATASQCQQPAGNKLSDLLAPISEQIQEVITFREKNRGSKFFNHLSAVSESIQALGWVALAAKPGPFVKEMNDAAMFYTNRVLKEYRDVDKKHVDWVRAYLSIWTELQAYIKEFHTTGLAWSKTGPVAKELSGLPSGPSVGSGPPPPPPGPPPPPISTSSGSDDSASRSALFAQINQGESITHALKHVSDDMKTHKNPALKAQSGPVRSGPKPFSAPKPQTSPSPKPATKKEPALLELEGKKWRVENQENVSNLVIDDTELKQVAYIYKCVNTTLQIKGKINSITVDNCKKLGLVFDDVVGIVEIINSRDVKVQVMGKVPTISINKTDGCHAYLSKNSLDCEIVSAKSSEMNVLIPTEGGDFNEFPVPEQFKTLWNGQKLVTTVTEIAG
# UniProt P49222: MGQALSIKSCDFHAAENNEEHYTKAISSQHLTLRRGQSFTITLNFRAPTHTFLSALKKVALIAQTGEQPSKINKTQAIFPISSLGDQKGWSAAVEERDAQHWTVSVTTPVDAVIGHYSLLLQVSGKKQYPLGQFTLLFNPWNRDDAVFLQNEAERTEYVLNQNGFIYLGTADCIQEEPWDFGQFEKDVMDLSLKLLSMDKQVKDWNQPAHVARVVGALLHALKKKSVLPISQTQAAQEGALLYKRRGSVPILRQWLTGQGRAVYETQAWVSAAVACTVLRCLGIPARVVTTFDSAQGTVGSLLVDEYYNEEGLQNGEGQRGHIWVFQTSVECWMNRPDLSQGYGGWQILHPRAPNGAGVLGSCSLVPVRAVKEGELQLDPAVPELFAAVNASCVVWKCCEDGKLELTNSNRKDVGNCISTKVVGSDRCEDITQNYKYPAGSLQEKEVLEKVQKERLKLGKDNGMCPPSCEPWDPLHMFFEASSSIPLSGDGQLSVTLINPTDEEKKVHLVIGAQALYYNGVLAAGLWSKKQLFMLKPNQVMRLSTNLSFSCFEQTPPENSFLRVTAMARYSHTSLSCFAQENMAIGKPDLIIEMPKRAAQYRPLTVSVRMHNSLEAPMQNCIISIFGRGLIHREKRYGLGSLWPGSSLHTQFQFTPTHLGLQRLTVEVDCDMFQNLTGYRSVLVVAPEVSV
# UniProt P42669: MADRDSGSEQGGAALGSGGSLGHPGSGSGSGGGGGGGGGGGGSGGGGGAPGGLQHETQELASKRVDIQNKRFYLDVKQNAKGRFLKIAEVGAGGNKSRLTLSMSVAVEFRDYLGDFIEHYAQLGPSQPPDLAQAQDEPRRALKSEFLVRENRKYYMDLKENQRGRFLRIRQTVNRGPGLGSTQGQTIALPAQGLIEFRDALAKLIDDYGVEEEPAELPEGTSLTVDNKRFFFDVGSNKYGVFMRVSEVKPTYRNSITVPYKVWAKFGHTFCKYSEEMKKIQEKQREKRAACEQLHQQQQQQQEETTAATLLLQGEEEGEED
# UniProt P48379: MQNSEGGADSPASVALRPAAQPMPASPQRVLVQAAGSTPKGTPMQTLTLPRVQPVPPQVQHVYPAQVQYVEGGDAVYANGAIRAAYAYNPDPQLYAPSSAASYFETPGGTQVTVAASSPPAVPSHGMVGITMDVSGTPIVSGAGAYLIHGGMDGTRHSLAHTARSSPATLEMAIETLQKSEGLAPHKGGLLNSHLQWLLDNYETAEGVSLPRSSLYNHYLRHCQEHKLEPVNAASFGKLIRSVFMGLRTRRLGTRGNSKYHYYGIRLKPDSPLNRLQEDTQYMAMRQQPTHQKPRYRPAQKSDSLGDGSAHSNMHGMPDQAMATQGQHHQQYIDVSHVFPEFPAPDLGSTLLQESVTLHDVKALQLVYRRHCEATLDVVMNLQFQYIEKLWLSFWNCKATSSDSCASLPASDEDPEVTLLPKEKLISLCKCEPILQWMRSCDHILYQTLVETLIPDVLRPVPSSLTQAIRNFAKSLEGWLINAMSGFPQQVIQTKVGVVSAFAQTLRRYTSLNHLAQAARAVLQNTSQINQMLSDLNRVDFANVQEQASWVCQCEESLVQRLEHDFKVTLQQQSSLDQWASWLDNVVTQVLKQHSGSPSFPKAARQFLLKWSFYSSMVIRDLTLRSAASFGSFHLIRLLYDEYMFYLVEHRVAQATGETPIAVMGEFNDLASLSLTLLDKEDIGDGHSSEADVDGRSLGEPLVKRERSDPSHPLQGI
# UniProt P52019: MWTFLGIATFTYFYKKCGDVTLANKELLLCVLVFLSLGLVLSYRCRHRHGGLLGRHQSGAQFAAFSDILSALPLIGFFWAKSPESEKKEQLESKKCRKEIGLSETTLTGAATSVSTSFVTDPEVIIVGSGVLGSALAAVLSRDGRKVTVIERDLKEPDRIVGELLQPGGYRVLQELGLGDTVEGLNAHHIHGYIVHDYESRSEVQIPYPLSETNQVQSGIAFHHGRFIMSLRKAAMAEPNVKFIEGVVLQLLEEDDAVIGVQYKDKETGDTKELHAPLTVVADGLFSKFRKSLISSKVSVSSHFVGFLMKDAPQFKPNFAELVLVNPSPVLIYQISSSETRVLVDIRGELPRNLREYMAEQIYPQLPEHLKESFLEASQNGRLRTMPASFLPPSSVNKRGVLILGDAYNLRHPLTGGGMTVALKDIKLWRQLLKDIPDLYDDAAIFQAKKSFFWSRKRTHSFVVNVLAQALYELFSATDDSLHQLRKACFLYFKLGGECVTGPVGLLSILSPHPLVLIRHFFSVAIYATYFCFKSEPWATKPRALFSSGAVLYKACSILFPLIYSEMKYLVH
# Some of the results follow. Most entries show no effect beyond the scatter of the controls.
# Compound: CN[C@@H]1C[C@H]2O[C@@](C)([C@@H]1OC)n1c3ccccc3c3c4c(c5c6ccccc6n2c5c31)C(=O)NC4 [staurosporine]
# Test: log2 fold change of tryptic peptide abundance, ligand vs vehicle (limited proteolysis) (log2 ratio); higher = more trypsin-susceptible (destabilized)
# Details: ligand concentration: 20 uM; sample: mouse liver crude lysate; replicate design: treated separately
row,Target,log2 fold change
1,"UniProt P53798 (peptide sequence: TNIIRDYLEDQQEGR, peptide start residue: 214)",-0.215
2,"UniProt P35601 (peptide sequence: LNDEAIAK, peptide start residue: 197)",-0.335
3,"UniProt P39039 (peptide sequence: VKSLCTELQGTVAIPR, peptide start residue: 142)",0.408
4,"UniProt P50396 (peptide sequence: MLLYTEVTR, peptide start residue: 90)",0.412
5,"UniProt P48725 (peptide sequence: LQSELSLMGPK, peptide start residue: 1474)",-0.729
6,"UniProt P35486 (peptide sequence: GPILMELQTYR, peptide start residue: 278)",0.116
7,"UniProt P52623 (peptide sequence: RTFPEPGDHPGVLATGKR, peptide start residue: 250)",0.244
8,"UniProt P45591 (peptide sequence: KSSTQEEIKK, peptide start residue: 22)",0.758
9,"UniProt P48441 (peptide sequence: LGGPGDSFHPLPR, peptide start residue: 208)",-0.199
10,"UniProt P50427 (peptide sequence: RPLTPEAEPR, peptide start residue: 520)",0.538
11,"UniProt P40645 (peptide sequence: SSIPSPIGGSLGR, peptide start residue: 462)",-0.417
12,"UniProt P53657 (peptide sequence: EPPEAVWADDVDRR, peptide start residue: 519)",-0.271
13,"UniProt P46656 (peptide sequence: DGETLTTK, peptide start residue: 79)",-0.287
14,"UniProt P52196 (peptide sequence: VDLSQPLIATCRK, peptide start residue: 238)",0.163
15,"UniProt P51141 (peptide sequence: SQASAVAPGLPPLHPLTK, peptide start residue: 632)",-0.267
16,"UniProt P49817 (peptide sequence: EIDLVNRDPK, peptide start residue: 48)",0.152
17,"UniProt P35396 (peptide sequence: CLALGMSHNAIR, peptide start residue: 132)",0.132
18,"UniProt P51949 (peptide sequence: EQEELEEALEVERQEHEQR, peptide start residue: 143)",-0.411
19,"UniProt P43274 (peptide sequence: SETAPAAPAAPAPAEKTPVK, peptide start residue: 2)",-0.12
20,"UniProt P43277 (peptide sequence: SETAPAAPAAPAPVEKTPVK, peptide start residue: 2)",-0.236
21,"UniProt P53566 (peptide sequence: VLELTSDNDR, peptide start residue: 315)",0.232
22,"UniProt P40124 (peptide sequence: VPTISINKTDGCHAYLSK, peptide start residue: 404)",0.485
23,"UniProt P49222 (peptide sequence: SCDFHAAENNEEHYTK, peptide start residue: 9)",-0.363
24,"UniProt P42669 (peptide sequence: FGHTFCK, peptide start residue: 266)",-0.325
25,"UniProt P48379 (peptide sequence: LEPVNAASFGK, peptide start residue: 457)",0.301
26,"UniProt P51682 (peptide sequence: STGEHEVSTGL, peptide start residue: 344)",-0.156
27,"UniProt P52019 (peptide sequence: SPESEKKEQLESK, peptide start residue: 82)",-0.385

# Two entries from above in a different format:
row | Target | log2 fold change
23 | UniProt P49222 (peptide sequence: SCDFHAAENNEEHYTK, peptide start residue: 9) | -0.363
25 | UniProt P48379 (peptide sequence: LEPVNAASFGK, peptide start residue: 457) | 0.301
